Results on 63 molecules are retold here after PubChem BioAssay AID493014 (National Center for Advancing Translational Sciences (NCATS), 2011).

The term AC50 denotes the midpoint of the concentration-response curve, whichever way the signal moves.

The assay is described as follows: qHTS Assay to Find Inhibitors of Chronic Active B-Cell Receptor Signaling. Particulars: ABC-DLBCL IkBa-CBG/CBR reporter, luminescence ratio (green luciferase fused to IkBa over red control in TMD8 lymphoma cells), 4 h. The procedure, abridged:
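TMD8 human ABC-DLBCL cells with doxycycline-inducible IκBα–green luciferase fusion and unfused red luciferase, in 0.5% FBS medium; compounds up to 46 uM, 4 h at 37C. Green/red luminescence ratio, filter-overlap corrected, fitted to concentration-response curves.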
A general note: Quantitative high-throughput screening tests each substance at several concentrations.

Setting [1] is: measured here: CBR red luminescence, cell number.
[2] abbreviates: measured here: IkBa-CBG green luminescence.

Where “and” joins values, the source holds several entries; their conditions need not be identical. Equal values may be shown once. Some of the results follow. These are further read-outs of the screen, such as a control signal, another cell line or another target. No call is given for them. The list favours compounds with an active or inconclusive main result. Potencies come from curve fits of mixed quality, noted in brackets.

Take `Cc1ccc(/C=C2\SC(=S)N(CCC(=O)NCCCN3CCOCC3)C2=O)cc1`: the concentration at half-maximal activity (AC50) under setting [1] is 35.5 µM [falling, single point]. Regarding `COc1cccc(N=Nc2ccc3ccccc3c2O)c1`, the concentration at half-maximal activity (AC50) under setting [1] is 0.562 µM [rising, full curve, poor fit].

Take `CCn1cnc2sc(C)c(C)c2c1=O`: the AC50 by setting is: under setting [1], 16.4 µM [rising, single point]; under setting [2], 14.6 µM [falling, single point]. `Cc1ccc2oc(/N=C(\N)NC(=O)C3CC3)nc2c1`: the AC50 under setting [1] is 7.08 µM [falling, partial curve]. Same read-out and setting: then `COc1ccccc1/C=C1\SC(=S)N(CCC(=O)N2CCCCC2CCO)C1=O` (centres undefined), with 6.31 µM [falling, full curve, poor fit]; and `Cn1c(=O)c2c(nc(CN3CCN(CCO)CC3)n2Cc2cccc3ccccc23)n(C)c1=O`, with 0.461 µM [rising, partial curve, poor fit]. With `CCc1ccc(CCC(=O)Nc2sc3c(c2C#N)CCCC3)o1`, the AC50 reads like this: under setting [1], 3.26 µM [rising, full curve]; under setting [2], 20.6 µM [falling, partial curve]. Turning to `O=C(O)CC(NNC(=O)c1ccccc1)C(=O)Nc1cccc([N+](=O)[O-])c1` (centres undefined), the AC50 under setting [1] is 10 µM [falling, partial curve]. Take `OCCCc1nc2ccccc2n1CCCCOc1ccccc1`: the half-maximal activity concentration (AC50) under setting [1] is 1.58 µM [rising, full curve, poor fit] and 631 nM [rising, full curve, poor fit].

Take `COc1ccc(NC(=S)NN(C)C(=S)Nc2ccc(OC)cc2)cc1`: the AC50 under setting [1] was 23.1 µM [rising, single point] and the AC50 under setting [2] is 23.1 µM [falling, single point]. Turning to `COc1ccc(-n2c(C)cc(C(=O)CCl)c2C)cc1`, the half-maximal activity concentration (AC50) runs as follows: under setting [1], 0.708 µM [falling, full curve, poor fit]; under setting [2], 22.4 µM [falling, single point]. Take `CCCCOC(=O)Nc1ccc(N(C)C)cc1`: the half-maximal activity concentration (AC50) under setting [1] was 29.1 µM [falling, single point]. Same read-out and setting: then `COc1cc(-c2noc(C)c2C(=O)NCCc2c[nH]c3ccccc23)cc(OC)c1OC`, with 22.4 µM [falling, single point]. On the same count and under the same terms, then `O=C(Nc1nccs1)C(Br)C(Br)c1ccccc1` (centres undefined), with 14.1 µM [falling, partial curve]; and `Cc1ccc(C(=O)N(C)c2nnc(-c3ccncc3)s2)cc1`, with 3.55 µM [rising, partial curve, poor fit]. Same read-out and setting: then `O=[N+]([O-])c1ccccc1S(=O)(=O)c1ccccc1[N+](=O)[O-]`, with 35.5 µM [rising, single point]. Regarding `Cc1ccccc1/C(N)=N/OC(=O)/C=C/c1ccccc1`, the AC50 under setting [1] was 29.1 µM [falling, single point]. In the case of `CCCNC(=O)c1ccc2c(=O)c(O)c(-c3ccc(Cl)c([N+](=O)[O-])c3)[nH]c2c1`, the half-maximal activity concentration (AC50) under setting [1] is 2.82 µM [rising, partial curve, poor fit]. Take `O=C1NC[C@@H](c2ccccc2)OC(=O)[C@H](Cc2ccc(F)cc2)C/C=C\C[C@@H]1CC(=O)N(CCO)Cc1ccccc1`: under setting [1], the AC50 is 18.4 µM [falling, single point]. Same read-out and setting: then `COc1ccccc1CN=Cc1[nH]c2ccc(Br)c(Cl)c2c1O`, with 25.9 µM [falling, single point]. On the same count and under the same terms, then `COc1ccc(C(CC(=O)Nc2ccccc2OC)n2cccc2)cc1` (centres undefined), with 1.64 µM [falling, full curve]. Same read-out and setting: then `O=C(NC1CCCCC1)c1cc(Nc2cccc(C(F)(F)F)c2)nc2ccccc12`, with 0.355 µM [falling, full curve, poor fit].

Take `Clc1ccccc1-c1nn2c(-c3ccncc3)nnc2s1`: the AC50 under setting [1] was 29.1 µM [rising, single point].

With `COc1ccc2oc(C(=O)N3CCN(C/C=C/c4ccccc4)CC3)c(C)c2c1`, the concentration at half-maximal activity (AC50) under setting [1] is 20.6 µM [falling, single point]. On the same count and under the same terms, then `O=c1ccc(-c2nc3ccccc3n2Cc2ccc(Cl)cc2)c[nH]1`, with 35.5 µM [falling, single point].

Consider `Cc1cc(C)c2c(N)c(C(=O)NNC(=O)c3ccccc3)sc2n1`, for which, under setting [1], the AC50 was 10 µM [falling, partial curve]. The same measure, in the same setting: then `CN(Cc1cccc(C(F)(F)F)c1)C(=O)C1CCC(=O)N(CC2CCCCC2)C1` (centres undefined), with 35.5 µM [falling, single point]. On to `Cc1cc(N2CCCCC2)nc2ccc(NC(=O)c3ccc(Br)o3)cc12`, for which the AC50 under setting [1] was 23.1 µM [falling, single point]. Same read-out and setting: then `C=CCn1c(CSc2nc3ccccc3s2)nnc1SCC(=O)NCc1ccccc1`, with 18.4 µM [falling, partial curve, poor fit]; and `COc1ccc(/C=C/C(=O)Nc2cc(C(F)(F)F)ccc2Cl)cc1OC`, with 6.51 µM [rising, single point]. `Cc1ccc(S(=O)(=O)N2CCN(CC(=O)N/N=C/c3ccc(Br)s3)CC2)cc1`: under setting [1], the AC50 is 2.91 µM [falling, single point].

Regarding `Cc1ccc(-c2nc3ccccc3s2)cc1NC(=S)NC(=O)c1cccc2ccccc12`, the AC50 under setting [1] is 5.17 µM [rising, partial curve, poor fit]. Still for that read-out and setting: then `Cn1nc(C(=O)NNC(=O)c2ccc(Cl)cc2)ccc1=O`, with 14.6 µM [falling, partial curve, poor fit]; and `COc1ccc(CN(C)C(=O)c2ccc(OCC(=O)N3CCOCC3)c(OC)c2)cc1`, with 0.092 µM [rising, full curve, poor fit]; and `CCOC(=O)c1c(N)n(-c2cccc(OC)c2)c2nc3ccccc3nc12`, with 6.31 µM [rising, single point]. Still for that read-out and setting: then `O=[N+]([O-])c1cccc(NC(=S)NCCc2ccccc2)c1`, with 32.6 µM [falling, single point]; and `CCNc1nc(NC(C)C)nc(OCC)n1`, with 32.6 µM [rising, single point]. Take `CCOC(=O)Nc1ccc(S(=O)(=O)N(C)C(C)C)cc1`: the half-maximal activity concentration (AC50) under setting [1] was 29.1 µM [rising, single point]. As for `Cn1c(N)c(C(=O)COC(=O)CCC2CCCCC2)c(=O)n(C)c1=O`, under setting [2], the concentration at half-maximal activity (AC50) was 17.8 µM [rising, partial curve, poor fit].

`C/C(=N\NC(=O)c1c(-c2ccccc2Cl)noc1C)c1cccc(NC(=O)C(C)C)c1`: under setting [1], the AC50 is 1.3 µM [rising, partial curve, poor fit]. Take `Oc1ccc(-c2nc3ccccn3c2NCc2ccco2)cc1`: the AC50 under setting [1] was 0.398 µM [falling, full curve, poor fit]. Consider `Cc1nc(SCc2cccc(F)c2)[nH]c(=O)c1C#N`, for which the half-maximal activity concentration (AC50) under setting [1] was 11.2 µM [falling, single point]. The same measure, in the same setting: then `C=CCNc1nc(Nc2ccc(OC)cc2OC)nc(OCC)n1`, with 0.447 µM [rising, full curve, poor fit]; and `Cc1ccccc1CN(C)C(C)C(=O)Nc1ccccc1F` (centres undefined), with 14.1 µM [rising, single point]; and `COc1cc(NC(=O)CSc2nnc(NC(C)C)s2)cc(OC)c1OC`, with 2.82 µM [rising, full curve]. The same measure, in the same setting: then `C/C(=N\NC(=O)c1ccc2c(c1)OCO2)c1ccc(NC(=O)CCCC(=O)O)cc1`, with 1.78 µM [falling, full curve]. Same read-out and setting: then `Cc1ccccc1C(=O)Nc1nc2n(n1)C(c1ccccc1)CC(=O)N2` (centres undefined), with 29.1 µM [falling, single point]. On to `Cc1ccc(N2N=C(C(=O)O)CCC2=O)cc1Cl`, for which the half-maximal activity concentration (AC50) under setting [1] is 3.55 µM [falling, single point]. Still for that read-out and setting: then `O=C(Nc1ccc(Cl)cc1)c1cccc(N2C(=O)C3C4CCC(C4)C3C2=O)c1` (centres undefined), with 25.9 µM [falling, partial curve]. Turning to `O=C(Nc1ccc(Cl)cn1)c1cccc(OCc2ccccc2)c1`, under setting [2], the AC50 was 17.8 µM [falling, partial curve, poor fit].

In the case of `Cc1nc(C)c(C(=O)N(c2ccc(C)c(C)c2)C(C(=O)NCc2ccco2)c2ccccc2)s1` (centres undefined), the half-maximal activity concentration (AC50) under setting [1] was 18.4 µM [falling, single point].

In the case of `O=C1c2ccccc2C(=O)C12OC2c1ccc(Cl)cc1Cl` (centres undefined), under setting [1], the AC50 was 7.31 µM [falling, partial curve]. Still for that read-out and setting: then `Cc1ccc(/C=C/c2ccc(=O)n(Cc3ccccc3Cl)n2)cc1`, with 29.1 µM [falling, single point]; and `O=C(Nc1c(C(=O)N2CCOCC2)oc2ccccc12)c1cccc([N+](=O)[O-])c1`, with 12.6 µM [rising, partial curve, poor fit].

`Cc1ccccc1-c1nc(C#N)c(N2CCC(C)CC2)o1`: under setting [1], the concentration at half-maximal activity (AC50) is 15.8 µM [rising, partial curve, poor fit]. For the molecule `Cc1cc2c3c(c1)C(C)CC(C)(C)N3C(=O)C2=O` (centres undefined), the half-maximal activity concentration (AC50) was 17.8 µM [rising, single point] under setting [1] and 22.4 µM [falling, single point] under setting [2]. On to `Cc1cc2ncn(CCOc3ccccc3)c2cc1C`, for which the AC50 under setting [1] is 35.5 µM [falling, single point]. On to `Fc1ccc(Cn2c(SCc3ccc(F)c(C(F)(F)F)c3)nnc2C(F)(F)F)cc1`, for which the half-maximal activity concentration (AC50) under setting [1] was 35.5 µM [falling, single point]. Still for that read-out and setting: then `O=C(Nc1nnc(-c2ccc(F)cc2)o1)c1cc(Cl)sc1Cl`, with 4.61 µM [falling, full curve]; and `COCCCNC(=S)NNC(=S)Nc1ccc(F)cc1F`, with 4.11 µM [falling, full curve, poor fit]. In the case of `COc1ccc(/C=C2\CCc3ccccc3C2=O)cc1O`, the concentration at half-maximal activity (AC50) is, setting by setting: under setting [1], 35.5 µM [falling, single point]; under setting [2], 6.31 µM [falling, full curve]. `COC(=O)c1sc(NC(=O)c2ccc(C)o2)nc1C`: the half-maximal activity concentration (AC50) under setting [1] was 14.6 µM [falling, single point].

Take `COc1ccc(NS(=O)(=O)c2c(F)cccc2F)cc1S(=O)(=O)N1CCOCC1`: under setting [1], the half-maximal activity concentration (AC50) is 1.03 µM [falling, partial curve, poor fit].
